# Results are given in words; binding and its absence hold for the method and conditions named. For part of these data: Binding can be weak; no strength is given. Sequences can lack the tags named with a protein.
# T1: PorN, BACTH fusion (P. gingivalis) (UniProt B2RLE7)
# T1 sequence: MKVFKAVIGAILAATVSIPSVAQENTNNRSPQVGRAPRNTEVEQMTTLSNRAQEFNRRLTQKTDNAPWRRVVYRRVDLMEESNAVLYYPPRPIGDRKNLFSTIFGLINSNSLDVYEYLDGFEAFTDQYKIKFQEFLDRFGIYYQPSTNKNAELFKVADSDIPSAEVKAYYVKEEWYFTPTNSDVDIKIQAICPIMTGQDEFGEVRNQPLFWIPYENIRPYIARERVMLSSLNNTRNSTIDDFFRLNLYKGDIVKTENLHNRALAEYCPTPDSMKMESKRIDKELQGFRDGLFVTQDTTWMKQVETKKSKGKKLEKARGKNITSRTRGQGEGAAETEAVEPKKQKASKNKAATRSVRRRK
# T2: PorK, BACTH fusion (P. gingivalis) (UniProt B2RLF0)
# T2 sequence: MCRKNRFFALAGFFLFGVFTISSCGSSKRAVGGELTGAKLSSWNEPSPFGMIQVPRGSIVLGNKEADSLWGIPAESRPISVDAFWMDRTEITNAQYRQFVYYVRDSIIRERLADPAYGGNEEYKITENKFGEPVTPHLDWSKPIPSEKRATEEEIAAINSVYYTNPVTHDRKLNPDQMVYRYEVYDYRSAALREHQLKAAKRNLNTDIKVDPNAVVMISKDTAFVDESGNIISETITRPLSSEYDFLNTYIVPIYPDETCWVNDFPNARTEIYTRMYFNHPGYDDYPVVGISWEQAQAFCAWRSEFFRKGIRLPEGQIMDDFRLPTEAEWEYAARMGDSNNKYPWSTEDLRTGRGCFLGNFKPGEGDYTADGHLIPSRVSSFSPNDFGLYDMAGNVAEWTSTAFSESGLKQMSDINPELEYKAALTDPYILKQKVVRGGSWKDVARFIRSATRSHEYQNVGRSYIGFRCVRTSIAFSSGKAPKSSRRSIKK
# How the values were obtained:
# Assay in all cases: two-hybrid
# [1] = target: T1, PorN, BACTH fusion (P. gingivalis)
# [2] = target: T2, PorK, BACTH fusion (P. gingivalis)
# [3] = target: PorW D6 C-terminal domain, BACTH fusion (P. gingivalis)
molecule,measurement,setting,value
"PorD without its signal peptide, BACTH fusion (P. gingivalis)",binding,[1],no binding
same,binding,[2],no binding
"PorN, BACTH fusion (protein, UniProt B2RLE7 1-359) MKVFKAVIGAILAATVSIPSVAQENTNNRSPQVGRAPRNTEVEQMTTLSNRAQEFNRRLTQKTDNAPWRRVVYRRVDLMEESNAVLYYPPRPIGDRKNLFSTIFGLINSNSLDVYEYLDGFEAFTDQYKIKFQEFLDRFGIYYQPSTNKNAELFKVADSDIPSAEVKAYYVKEEWYFTPTNSDVDIKIQAICPIMTGQDEFGEVRNQPLFWIPYENIRPYIARERVMLSSLNNTRNSTIDDFFRLNLYKGDIVKTENLHNRALAEYCPTPDSMKMESKRIDKELQGFRDGLFVTQDTTWMKQVETKKSKGKKLEKARGKNITSRTRGQGEGAAETEAVEPKKQKASKNKAATRSVRRRK",binding,[3],binds
